Measurements: patent publication US11001561B2, “Pyrimidinone derivatives as SHP2 antagonists” (MERCK PATENT GMBH, priority 2019, dated 2021)
Entries after “also recorded” stand apart in the source; their conditions may differ. At least one structure is not confirmed: it was looked up by name or label, or the drawing left a doubt.

Tests used:
Kyse-520 xenografts = test: Kyse-520 xenograft (EGFR amplified esophageal cancer); conditions: H2D Rag2 mice, 0.8, 2.5 or 8 mg/kg daily oral gavage, FIG. 3
Text: H2D Rag2 mice were inoculated with 5 million KYSE-520 cells mixed with matrigel.
In vivo efficacy of compound 74a in an EGFR amplified setting was investigated in Kyse-520 xenografts. H2D Rag2 mice were inoculated with 5 million KYSE-520 cells mixed with matrigel.

[1] = system: MCP-1 production in U937 cells; test: Cytokine release assay in U937 cells (MCP-1 AlphaLISA, IL-6 stimulation); format: cell-based; conditions: FIG. 1
Experimental: Selected compounds were tested in a cytokine release assay in monocytic cells (U937) to test their anti-inflammatory properties. Cells were plated in a 96-well cell culture plate using serum-free media. The cells were treated with indicated concentrations of SHP-2 inhibitors for 30 minutes followed by overnight stimulation with recombinant IL-6 (50 ng/mL). The MCP-1 production was measured in the culture supernatant using a MCP-1 AlphaLISA kit (Perkin Elmer).

Question: Which tumor growth inhibition (Kyse-520 xenografts) does the source give for `Cc1c(N2CCC3(CC2)Cc2ccccc2[C@H]3N)nc(C)n(-c2cccc(Cl)c2Cl)c1=O` [Compound 74a, (3M)-6-[(1S)-1-amino-1,3-dihydrospiro[indene-2,4′-piperidin]-1′-yl]-3-(2,3-dichlorophenyl)-2,5-dimethyl-3,4-dihydropyrimidin-4-one] here?
Answer: The tumor growth inhibition was “all dosage levels reduce growth of the tumor a significant amount; also recorded: dose-dependent significant tumor growth inhibition”.

Question: With `Cc1c(N2CCC3(CC2)C[C@@H](C)C[C@H]3N)nc(C)n(-c2cccc(Cl)c2Cl)c1=O` [Compound 77, (3M)-6-[(1R,3R)-1-amino-3-methyl-8-azaspiro[4.5]decan-8-yl]-3-(2,3-dichlorophenyl)-2,5-dimethyl-3,4-dihydropyrimidin-4-one] as the compound, how does the “MCP-1 production in U937 cells stimulated with IL-6” value [1] read?
Answer: Its value is “suppressed MCP-1 production”.
